Results: paper PMC6336777
Results are given in words; binding and its absence hold for the method and conditions named. In cells and extracts the contact can be indirect. Some binding calls cover weakened binding; strength is not graded here.

The chains behind the UniProt entries cited, without tags or fusion partners. Residues count along the entry.
UniProt Q9EQY0, residues 21-977: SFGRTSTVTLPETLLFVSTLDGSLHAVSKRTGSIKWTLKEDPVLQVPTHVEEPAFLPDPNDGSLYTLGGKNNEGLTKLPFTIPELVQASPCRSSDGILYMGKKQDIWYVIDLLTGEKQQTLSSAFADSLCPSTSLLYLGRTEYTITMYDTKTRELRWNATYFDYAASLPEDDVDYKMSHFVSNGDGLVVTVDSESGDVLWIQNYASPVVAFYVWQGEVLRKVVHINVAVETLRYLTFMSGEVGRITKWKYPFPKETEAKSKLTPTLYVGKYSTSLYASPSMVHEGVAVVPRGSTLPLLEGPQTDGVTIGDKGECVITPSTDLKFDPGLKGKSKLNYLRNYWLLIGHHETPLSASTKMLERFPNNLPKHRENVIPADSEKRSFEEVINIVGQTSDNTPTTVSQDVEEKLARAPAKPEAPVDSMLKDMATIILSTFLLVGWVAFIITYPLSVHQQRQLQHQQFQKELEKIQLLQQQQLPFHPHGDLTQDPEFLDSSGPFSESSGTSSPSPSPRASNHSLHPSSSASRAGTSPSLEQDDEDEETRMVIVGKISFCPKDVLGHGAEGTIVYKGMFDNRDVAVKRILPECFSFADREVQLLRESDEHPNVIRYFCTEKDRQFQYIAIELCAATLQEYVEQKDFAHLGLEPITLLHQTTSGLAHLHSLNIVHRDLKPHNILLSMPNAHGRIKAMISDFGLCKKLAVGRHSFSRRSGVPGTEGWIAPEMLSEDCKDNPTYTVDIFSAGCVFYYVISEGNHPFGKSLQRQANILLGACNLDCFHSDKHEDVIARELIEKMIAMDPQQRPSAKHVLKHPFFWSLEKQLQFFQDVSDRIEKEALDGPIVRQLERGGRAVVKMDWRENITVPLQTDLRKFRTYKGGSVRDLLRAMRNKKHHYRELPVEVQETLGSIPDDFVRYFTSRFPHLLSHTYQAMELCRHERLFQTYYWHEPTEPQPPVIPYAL
UniProt Q9DCC8: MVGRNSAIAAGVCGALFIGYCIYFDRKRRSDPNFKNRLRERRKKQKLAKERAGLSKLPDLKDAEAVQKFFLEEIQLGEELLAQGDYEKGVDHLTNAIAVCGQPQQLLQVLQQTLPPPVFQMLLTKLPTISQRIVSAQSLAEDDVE
UniProt Q8CHK4: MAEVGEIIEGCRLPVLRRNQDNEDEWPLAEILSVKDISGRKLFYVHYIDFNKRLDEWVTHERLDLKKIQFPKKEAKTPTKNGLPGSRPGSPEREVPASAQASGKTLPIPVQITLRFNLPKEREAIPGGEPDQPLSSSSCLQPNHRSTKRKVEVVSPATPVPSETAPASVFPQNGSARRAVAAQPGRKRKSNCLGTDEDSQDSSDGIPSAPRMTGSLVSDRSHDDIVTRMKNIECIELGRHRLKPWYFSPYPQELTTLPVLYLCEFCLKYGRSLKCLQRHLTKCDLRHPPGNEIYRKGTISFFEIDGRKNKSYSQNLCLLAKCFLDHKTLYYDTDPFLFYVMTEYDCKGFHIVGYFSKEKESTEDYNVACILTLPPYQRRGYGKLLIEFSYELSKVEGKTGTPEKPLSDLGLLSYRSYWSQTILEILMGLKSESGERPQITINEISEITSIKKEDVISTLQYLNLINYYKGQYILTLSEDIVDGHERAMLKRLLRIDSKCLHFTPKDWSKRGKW

What was measured:
[1] = target: T1, Myristoylated Alanine-Rich C Kinase Substrate (MARCKS) (mouse (endogenous in embryos and C17.2 cells)) (UniProt P26645); assay: co-IP; IP with rabbit anti-MARCKS antibody and Protein A/G magnetic beads from C17.2 cell lysate, normal or high glucose; immunoblot
T1 sequence: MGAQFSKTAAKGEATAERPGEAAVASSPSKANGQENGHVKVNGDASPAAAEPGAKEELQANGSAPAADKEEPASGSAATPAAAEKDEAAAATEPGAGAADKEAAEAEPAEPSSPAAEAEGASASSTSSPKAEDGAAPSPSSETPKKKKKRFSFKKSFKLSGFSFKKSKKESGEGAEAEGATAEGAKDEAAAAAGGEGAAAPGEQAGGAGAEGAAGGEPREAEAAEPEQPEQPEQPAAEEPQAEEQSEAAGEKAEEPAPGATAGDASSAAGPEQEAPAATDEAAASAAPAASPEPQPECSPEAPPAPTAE

[2] = target: T1, Myristoylated Alanine-Rich C Kinase Substrate (MARCKS) (mouse (endogenous in embryos and C17.2 cells)); assay: co-IP; IP with rabbit anti-MARCKS antibody and Protein A/G magnetic beads from lysate of five to six embryos pooled per litter, nondiabetic or diabetic dams; immunoblot
[3] = target: IRE1α (mouse (endogenous in embryos and C17.2 cells)) (UniProt Q9EQY0); assay: proximity ligation; cultured C17.2 cells in normal glucose (5 mM) or high glucose (25 mM), with or without MARCKS-PD; red PLA dots per cell
[4] = target: Tom20 (mouse (endogenous in embryos and C17.2 cells)) (UniProt Q9DCC8); assay: as above
[5] = target: IRE1α (mouse (endogenous in embryos and C17.2 cells)) (UniProt Q9EQY0); assay: proximity ligation; sections of the embryonic neuroepithelium; embryos from nondiabetic or diabetic dams, wild type or MARCKS-PD transgenic; red PLA dots per cell
[6] = target: Tom20 (mouse (endogenous in embryos and C17.2 cells)) (UniProt Q9DCC8); assay: as above

Measured: binding

Tat-interactive protein 60 (Tip60) (from UniProt Q8CHK4 1-513) (enzyme)
binds: [1] | [2]

B1: Myristoylated Alanine-Rich C Kinase Substrate (MARCKS) (protein, UniProt P26645 1-309)
chain: T1 sequence
binds: [3] | [4] | [5] | [6]
